Some of the results follow.
Legend:
Assay in all cases: glycan array binding signal (z-score within array); higher = stronger binding
Details in all cases: glycan notation: IUPAC condensed, linker removed
[1] = molecular target: Gal(b1-4)GlcNAc(b1-6)GalNAc
Method in brief: (§1)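 The binding signal is a Z-score computed within each array and averaged over linkers. Arrays of the same protein sequence at different concentrations or buffers were also averaged together. Data originate from 3228 arrays in the Consortium for Functional Glycomics database, kept only where the protein sequence was available.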

[2] = molecular target: Gal(b1-4)GlcNAc(b1-6)[Gal(b1-3)]GalNAc
Method in brief: as §1

[3] = molecular target: Gal(b1-4)GlcNAc(b1-6)[Gal(b1-4)GlcNAc(b1-3)]GalNAc
Method in brief: as §1

Gal(b1-4)GlcNAc6P = molecular target: Gal(b1-4)GlcNAc6P
Method in brief: as §1

Gal(b1-6)Gal = molecular target: Gal(b1-6)Gal
Method in brief: as §1

Gal3S(b1-3)GalNAc = molecular target: Gal3S(b1-3)GalNAc
Method in brief: as §1

Gal3S(b1-3)GlcNAc = molecular target: Gal3S(b1-3)GlcNAc
Method in brief: as §1

[4] = molecular target: Gal3S(b1-3)[Fuc(a1-4)]GlcNAc
Method in brief: as §1

Gal3S(b1-4)Glc = molecular target: Gal3S(b1-4)Glc
Method in brief: as §1

Gal3S(b1-4)Glc6S = molecular target: Gal3S(b1-4)Glc6S
Method in brief: as §1

Gal3S(b1-4)GlcNAc = molecular target: Gal3S(b1-4)GlcNAc
Method in brief: as §1

[5] = molecular target: Gal3S(b1-4)[Fuc(a1-3)]Glc6S
Method in brief: as §1

[6] = molecular target: Gal3S(b1-4)[Fuc(a1-3)]GlcNAc
Method in brief: as §1

[7] = molecular target: Gal3S(b1-4)[Fuc(a1-3)]GlcNAc6S
Method in brief: as §1

Gal3S4S(b1-4)GlcNAc = molecular target: Gal3S4S(b1-4)GlcNAc
Method in brief: as §1

Gal3S6S(b1-4)GlcNAc = molecular target: Gal3S6S(b1-4)GlcNAc
Method in brief: as §1

Gal3S6S(b1-4)GlcNAc6S = molecular target: Gal3S6S(b1-4)GlcNAc6S
Method in brief: as §1

Gal4S(b1-4)GlcNAc = molecular target: Gal4S(b1-4)GlcNAc
Method in brief: as §1

Gal4S6S(b1-4)GlcNAc = molecular target: Gal4S6S(b1-4)GlcNAc
Method in brief: as §1

Gal6P(b1-4)GlcNAc = molecular target: Gal6P(b1-4)GlcNAc
Method in brief: as §1

Gal6S(b1-3)GlcNAc = molecular target: Gal6S(b1-3)GlcNAc
Method in brief: as §1

Gal6S(b1-3)GlcNAc6S = molecular target: Gal6S(b1-3)GlcNAc6S
Method in brief: as §1

Gal6S(b1-4)Glc = molecular target: Gal6S(b1-4)Glc
Method in brief: as §1

Gal6S(b1-4)Glc6S = molecular target: Gal6S(b1-4)Glc6S
Method in brief: as §1

Gal6S(b1-4)GlcNAc = molecular target: Gal6S(b1-4)GlcNAc
Method in brief: as §1

Gal6S(b1-4)GlcNAc6S = molecular target: Gal6S(b1-4)GlcNAc6S
Method in brief: as §1

GalNAc(a1-3)Gal = molecular target: GalNAc(a1-3)Gal
Method in brief: as §1

GalNAc(a1-3)GalNAc = molecular target: GalNAc(a1-3)GalNAc
Method in brief: as §1

[8] = molecular target: GalNAc(a1-3)GalNAc(b1-3)Gal(a1-4)Gal(b1-4)Glc
Method in brief: as §1

[9] = molecular target: GalNAc(a1-3)GalNAc(b1-3)Gal(a1-4)Gal(b1-4)GlcNAc
Method in brief: as §1

GalNAc(b1-3)Gal = molecular target: GalNAc(b1-3)Gal
Method in brief: as §1

[10] = molecular target: GalNAc(b1-3)Gal(a1-4)Gal(b1-4)GlcNAc
Method in brief: as §1

[11] = molecular target: GalNAc(b1-3)Gal(a1-4)Gal(b1-4)GlcNAc(b1-3)Gal(b1-4)Glc
Method in brief: as §1

[12] = molecular target: GalNAc(b1-3)Gal(a1-6)Gal(b1-4)Glc
Method in brief: as §1

GalNAc(b1-3)GalNAc = molecular target: GalNAc(b1-3)GalNAc
Method in brief: as §1

GalNAc(b1-3)GlcNAc = molecular target: GalNAc(b1-3)GlcNAc
Method in brief: as §1

GalNAc(b1-4)Gal(b1-4)Glc = molecular target: GalNAc(b1-4)Gal(b1-4)Glc
Method in brief: as §1

GalNAc(b1-4)GlcNAc = molecular target: GalNAc(b1-4)GlcNAc
Method in brief: as §1

B1: ArathEULS3 TAP (Arabidopsis thaliana) (protein)
chain: IDENLYFQGGSMDEKTTGWRGGHVVEGLAGELEQLRARLEHHPQGQREPGGGGSLEITSLYKKAGFMEHHHQHHRHHQRDDGEDDRQSFGVPPPHVDAPPQPHGLYQSQPHFDPYAPTPQAPAPYRSETQFEPHAPPPYRSEPYFETPAPPPSFGHVSHVGHQSPNESYPPEHHRYGGYQQPSNSLLESHGDHSGVTHVAHHSSNQPQSSSGVYHKPDENRLPDNLAGLAGRATVKVYSKAEPNYNLTIRDGKVILAPADPSDEAQHWYKDEKYSTKVKDADGHPCFALVNKATGEAMKHSVGATHPVHLIRYVPDKLDESVLWTESKDFGDGYRTIRMVNNTRLNVDAYHGDSKSGGVRDGTTIVLWDWNKGDNQLWKIFPF
glycan array binding signal (z-score) [1]: 1.1
glycan array binding signal (z-score) [2]: 0.965
glycan array binding signal (z-score) [3]: 0.619
glycan array binding signal (z-score) (Gal(b1-4)GlcNAc6P): -0.489
glycan array binding signal (z-score) (Gal(b1-6)Gal): -1.09
glycan array binding signal (z-score) (Gal3S(b1-3)GalNAc): -0.675
glycan array binding signal (z-score) (Gal3S(b1-3)GlcNAc): -0.162
glycan array binding signal (z-score) [4]: 0.529
glycan array binding signal (z-score) (Gal3S(b1-4)Glc): 0.159
glycan array binding signal (z-score) (Gal3S(b1-4)Glc6S): -0.285
glycan array binding signal (z-score) (Gal3S(b1-4)GlcNAc): -0.378
glycan array binding signal (z-score) [5]: 1.22
glycan array binding signal (z-score) [6]: 1.59
glycan array binding signal (z-score) [7]: 0.741
glycan array binding signal (z-score) (Gal3S4S(b1-4)GlcNAc): 4.33
glycan array binding signal (z-score) (Gal3S6S(b1-4)GlcNAc): 0.132
glycan array binding signal (z-score) (Gal3S6S(b1-4)GlcNAc6S): -0.775
glycan array binding signal (z-score) (Gal4S(b1-4)GlcNAc): 0.737
glycan array binding signal (z-score) (Gal4S6S(b1-4)GlcNAc): -1.26
glycan array binding signal (z-score) (Gal6P(b1-4)GlcNAc): 1.8
glycan array binding signal (z-score) (Gal6S(b1-3)GlcNAc): 0.277
glycan array binding signal (z-score) (Gal6S(b1-3)GlcNAc6S): -0.581
glycan array binding signal (z-score) (Gal6S(b1-4)Glc): 0.765
glycan array binding signal (z-score) (Gal6S(b1-4)Glc6S): 1.58
glycan array binding signal (z-score) (Gal6S(b1-4)GlcNAc): 0.324
glycan array binding signal (z-score) (Gal6S(b1-4)GlcNAc6S): 1.4
glycan array binding signal (z-score) (GalNAc(a1-3)Gal): -0.237
glycan array binding signal (z-score) (GalNAc(a1-3)GalNAc): 0.515
glycan array binding signal (z-score) [8]: 0.997
glycan array binding signal (z-score) [9]: 1.86
glycan array binding signal (z-score) (GalNAc(b1-3)Gal): 0.771
glycan array binding signal (z-score) [10]: 1.33
glycan array binding signal (z-score) [11]: 0.972
glycan array binding signal (z-score) [12]: -0.875
glycan array binding signal (z-score) (GalNAc(b1-3)GalNAc): -0.701
glycan array binding signal (z-score) (GalNAc(b1-3)GlcNAc): -0.83
glycan array binding signal (z-score) (GalNAc(b1-4)Gal(b1-4)Glc): -0.58
glycan array binding signal (z-score) (GalNAc(b1-4)GlcNAc): 0.431
